Test results published in article PMC7862700.
This is a selection; strong and weak results do not stand in their true shares. For part of these data: At the low end of the ranking the order means little. This is one part of the list. For part of these data: The source does not settle which construct or isoform was used.

Columns and labels:
Assay in all cases: DAPPL (digital affinity profiling via proximity ligation, sequencing)
Conditions in all cases: 10 mM Tris-HCl pH 7.5, 50 mM NaCl, 1 mM DTT, 4% glycerol, room temperature, 30 min; GST-TFs on glutathione beads, 16-mer random dsDNA library, 0.1% …; high values mean tight binding; double strand, one strand shown; scale: fold enrichment (6-mer frequency, TF over GST control)
GABPA = biological target: T1, GABPA (UniProt Q06546)
T1 sequence: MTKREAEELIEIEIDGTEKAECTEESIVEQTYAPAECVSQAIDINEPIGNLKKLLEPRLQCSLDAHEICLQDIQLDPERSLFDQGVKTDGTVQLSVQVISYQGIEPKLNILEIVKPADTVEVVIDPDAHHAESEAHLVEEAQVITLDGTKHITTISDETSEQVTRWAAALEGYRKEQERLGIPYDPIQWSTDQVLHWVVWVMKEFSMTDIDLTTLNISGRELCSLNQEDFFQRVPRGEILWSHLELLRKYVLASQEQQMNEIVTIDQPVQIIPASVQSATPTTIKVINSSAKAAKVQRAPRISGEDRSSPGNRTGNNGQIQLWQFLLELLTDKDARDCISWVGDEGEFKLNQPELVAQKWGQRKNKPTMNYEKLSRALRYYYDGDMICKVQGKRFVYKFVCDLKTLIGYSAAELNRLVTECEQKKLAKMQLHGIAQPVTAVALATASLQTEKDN

ETS1 = biological target: T2, ETS1 (UniProt P14921)
T2 sequence: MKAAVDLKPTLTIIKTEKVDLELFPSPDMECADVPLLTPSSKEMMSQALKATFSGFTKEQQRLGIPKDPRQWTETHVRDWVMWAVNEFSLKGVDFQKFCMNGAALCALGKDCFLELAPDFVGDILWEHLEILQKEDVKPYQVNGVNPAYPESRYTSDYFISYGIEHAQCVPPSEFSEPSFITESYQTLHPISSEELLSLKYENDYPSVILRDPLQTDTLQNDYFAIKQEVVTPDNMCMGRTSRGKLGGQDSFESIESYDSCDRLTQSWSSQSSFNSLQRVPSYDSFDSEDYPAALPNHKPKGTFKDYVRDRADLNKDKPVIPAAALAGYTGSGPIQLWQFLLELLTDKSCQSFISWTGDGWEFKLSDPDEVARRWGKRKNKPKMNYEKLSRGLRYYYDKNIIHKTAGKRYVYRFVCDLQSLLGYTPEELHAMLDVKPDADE

SPDEF = biological target: T3, SPDEF (UniProt O95238)
T3 sequence: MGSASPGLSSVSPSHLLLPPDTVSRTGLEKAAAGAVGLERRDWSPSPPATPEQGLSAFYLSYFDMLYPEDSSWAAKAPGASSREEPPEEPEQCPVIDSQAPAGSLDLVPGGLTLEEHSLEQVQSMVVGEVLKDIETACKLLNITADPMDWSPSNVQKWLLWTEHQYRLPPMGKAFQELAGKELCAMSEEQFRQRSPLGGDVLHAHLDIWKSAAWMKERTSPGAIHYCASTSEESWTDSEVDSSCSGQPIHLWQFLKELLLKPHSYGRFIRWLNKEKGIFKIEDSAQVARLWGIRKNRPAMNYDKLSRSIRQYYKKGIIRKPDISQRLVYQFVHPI

Sequence | binding signal (GABPA) | binding signal (ETS1) | binding signal (SPDEF)
ACGCAG | 0.817 | 0.779 | 0.831
ATAGGA | 0.784 | 0.787 | 0.899
GGCGGT | 0.443 | 0.423 | 0.376
CAAGAG | 0.818 | 0.765 | 0.725
TGGGAG | 0.461 | 0.403 | 0.396
CCAGGT | 0.763 | 0.773 | 0.689
GGAACC | 0.787 | 0.8 | 0.939
GATTGT | 0.826 | 0.866 | 0.835
GGTCAT | 0.749 | 0.877 | 0.854
GGAGAT | 0.298 | 0.3 | 0.325
CGTAGG | 0.639 | 0.647 | 0.625
AGTCTA | 0.772 | 0.723 | 0.692
ATCGGG | 0.482 | 0.479 | 0.457
GGTGAT | 0.771 | 0.819 | 0.819
TAGCCA | 0.9 | 0.832 | 0.891
GAGACG | 0.321 | 0.319 | 0.338
AAGGGG | 0.98 | 0.963 | 0.804
GGCGAA | 0.731 | 0.694 | 0.611
GGACTG | 0.789 | 0.673 | 0.72
GCATGT | 0.772 | 0.842 | 0.779

Sequence | binding signal (GABPA) | binding signal (ETS1) | binding signal (SPDEF)
CGGAGT | 0.311 | 0.313 | 0.327
GAGAGC | 0.347 | 0.371 | 0.314
AGCGCG | 0.831 | 0.895 | 0.691
AGTTGA | 0.712 | 0.809 | 0.75
ACGCAT | 0.833 | 0.78 | 0.886
CGGTGG | 0.661 | 0.595 | 0.554
ACGTGT | 0.607 | 0.642 | 0.644
GTGAAG | 0.609 | 0.643 | 0.605
AAGCCA | 0.844 | 0.911 | 0.803
TCGTGG | 0.745 | 0.814 | 0.636
GGACGT | 0.492 | 0.56 | 0.647
CCAGCC | 0.686 | 0.756 | 0.792
CTGTGA | 0.505 | 0.496 | 0.461
AACGTG | 0.354 | 0.364 | 0.374
GAGCCT | 0.877 | 0.843 | 0.843
GGCGTA | 0.663 | 0.657 | 0.643
GCGTGA | 0.245 | 0.288 | 0.274
GACCAG | 0.638 | 0.642 | 0.685
GACGGT | 0.467 | 0.408 | 0.47
CGGTCA | 0.752 | 0.832 | 0.886

Sequence | binding signal (GABPA) | binding signal (ETS1) | binding signal (SPDEF)
CTAGTC | 0.774 | 0.826 | 0.741
GTGATC | 0.868 | 0.786 | 0.905
GAGTGG | 0.57 | 0.639 | 0.596
GGAAGG | 0.83 | 0.765 | 0.754
TCGGAT | 0.481 | 0.515 | 0.55
GTAGTG | 0.834 | 0.757 | 0.763
TTGTCG | 0.812 | 0.887 | 0.907
GAGTTC | 0.743 | 0.729 | 0.782
CAGTAA | 0.745 | 0.688 | 0.762
GGAGGC | 0.267 | 0.258 | 0.229
ACCCAG | 0.621 | 0.717 | 0.663
AAGTCG | 0.513 | 0.475 | 0.467
GAGGAC | 0.665 | 0.591 | 0.589
TTGAGT | 0.645 | 0.645 | 0.678
TTGTGA | 0.86 | 0.812 | 0.808
CAGTGT | 0.701 | 0.699 | 0.69
GGGTGC | 0.822 | 0.842 | 0.829
CGCGAG | 0.547 | 0.507 | 0.511
GACCCT | 0.923 | 0.87 | 0.93
CGTTAG | 0.877 | 0.843 | 0.861

Part of the list above, in CSV form:
Sequence,binding signal (GABPA),binding signal (ETS1),binding signal (SPDEF)
CAGTAA,0.745,0.688,0.762
GGAGGC,0.267,0.258,0.229
